From PMC10753161

Target: T1, StSN2 (endogenous, potato tuber) (potato (endogenous in tuber budding eyes)) (UniProt Q93X17)
T1 sequence: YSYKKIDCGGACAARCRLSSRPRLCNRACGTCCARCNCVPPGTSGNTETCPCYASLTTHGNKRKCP
Test: affinity purification with mass spectrometry; Co-IP/MS screen for proteins interacting with StSN2; sample and conditions not told

Substance: StBIN2 (endogenous, potato tuber) (enzyme)
- binding: binds

These are yes or no findings as the source states them, for the method shown. In cells and extracts the contact can be indirect. A yes stands for co-enrichment or nearness to the bait. Other partners may have been found.
